No constants are given. Whether binding was seen depends on the method and setting. In cells and extracts the contact can be indirect. Some binding calls cover weakened binding; strength is not graded here.
Biological target: TIRC7 protein from activated human peripheral blood lymphocyte lysate (human) (UniProt Q13488)
Assay: co-immunoprecipitation from human lymphocyte lysate with anti-TIRC7 and anti-HLA-DR alpha chain antibodies

Protein sequences, listed by entry. Tags and fused reporters are not part of them. Lines headed by an entry give the natural chain unless they say otherwise; changes in a name come on top. Residues count along the entry.
UniProt Q13488, residues 217-830: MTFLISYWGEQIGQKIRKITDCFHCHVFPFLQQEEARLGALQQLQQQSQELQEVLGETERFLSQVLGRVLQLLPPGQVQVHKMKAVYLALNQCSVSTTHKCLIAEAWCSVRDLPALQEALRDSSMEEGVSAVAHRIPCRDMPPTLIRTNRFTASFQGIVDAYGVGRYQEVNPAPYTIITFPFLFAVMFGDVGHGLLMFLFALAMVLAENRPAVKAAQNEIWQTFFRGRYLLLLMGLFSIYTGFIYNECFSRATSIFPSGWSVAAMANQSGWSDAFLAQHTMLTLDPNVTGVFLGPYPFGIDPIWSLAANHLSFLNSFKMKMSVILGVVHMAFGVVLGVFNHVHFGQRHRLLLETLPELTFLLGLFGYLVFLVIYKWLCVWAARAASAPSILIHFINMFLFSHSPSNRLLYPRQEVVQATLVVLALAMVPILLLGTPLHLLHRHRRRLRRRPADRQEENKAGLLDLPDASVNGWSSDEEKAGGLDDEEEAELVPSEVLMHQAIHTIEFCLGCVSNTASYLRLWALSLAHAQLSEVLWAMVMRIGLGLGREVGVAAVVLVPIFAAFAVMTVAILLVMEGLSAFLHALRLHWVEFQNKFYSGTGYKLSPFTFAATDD
UniProt P01903: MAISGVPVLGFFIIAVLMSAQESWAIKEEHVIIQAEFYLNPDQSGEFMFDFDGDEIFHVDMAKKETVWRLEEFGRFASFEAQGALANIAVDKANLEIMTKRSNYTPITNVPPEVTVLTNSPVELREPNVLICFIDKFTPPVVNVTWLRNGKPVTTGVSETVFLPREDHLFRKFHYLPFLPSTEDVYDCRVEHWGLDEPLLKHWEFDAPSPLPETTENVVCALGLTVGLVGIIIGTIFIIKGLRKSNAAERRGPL

With “HLA-DR alpha chain from activated human peripheral blood lymphocyte lysate (from UniProt P01903 26-254) (ligand)” the binding was “binds”.

Source: patent publication US20040072780A1
